Laboratory results taken from US5827825 (dated 1998).

Assay: Fmoc solid-phase peptide synthesis; Sasrin resin; symmetric anhydride method; N,N-dicyclohexylcarbodiimide/hydroxybenzotriazole fo
Conditions: whole synthesis, scale 0.20 mmol

Fmoc-PV[His(Trt)]LK(Boc)R(Mtr)
crude mass: 180 mg

Square brackets hold non-standard residues; d marks the D form. Ends that are not written are not given here. * marks the point of attachment. His(Trt) = N[C@@H](Cc1cn(C(c2ccccc2)(c2ccccc2)c2ccccc2)cn1)C(=O)O; Fmoc = O=C(OCC1c2ccccc2-c2ccccc21)*; Mtr = COc1cc(C)c(S(=O)(=O)*)c(C)c1C; Boc = CC(C)(C)OC(=O)*
